These are yes or no findings as the source states them, for the method shown. In cells and extracts the contact can be indirect. Here binding means that the protein was enriched with, or labelled near, the bait; the list need not be complete. For some of these results: No binding means not detected with the bait. For some of these results: Sequences can lack the tags named with a protein.
T1: Myc-MKRN4 (human) (UniProt Q13434)
T1 sequence: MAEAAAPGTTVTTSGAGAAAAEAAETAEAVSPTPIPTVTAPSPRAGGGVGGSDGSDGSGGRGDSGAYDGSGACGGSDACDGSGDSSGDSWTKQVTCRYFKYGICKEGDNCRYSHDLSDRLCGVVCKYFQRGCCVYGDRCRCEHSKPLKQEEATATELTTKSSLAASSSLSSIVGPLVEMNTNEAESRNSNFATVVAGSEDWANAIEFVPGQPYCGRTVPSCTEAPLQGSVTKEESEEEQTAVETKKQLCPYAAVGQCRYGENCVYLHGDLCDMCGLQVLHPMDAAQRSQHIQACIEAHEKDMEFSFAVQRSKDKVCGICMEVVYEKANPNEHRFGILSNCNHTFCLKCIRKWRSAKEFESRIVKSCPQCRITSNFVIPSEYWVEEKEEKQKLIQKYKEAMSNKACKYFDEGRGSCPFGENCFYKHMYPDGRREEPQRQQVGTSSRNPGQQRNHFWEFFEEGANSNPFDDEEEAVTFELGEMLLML

Protein sequences, listed by entry. Tags and fused reporters are not part of them. Lines headed by an entry give the natural chain unless they say otherwise; changes in a name come on top.
UniProt Q8IVH8: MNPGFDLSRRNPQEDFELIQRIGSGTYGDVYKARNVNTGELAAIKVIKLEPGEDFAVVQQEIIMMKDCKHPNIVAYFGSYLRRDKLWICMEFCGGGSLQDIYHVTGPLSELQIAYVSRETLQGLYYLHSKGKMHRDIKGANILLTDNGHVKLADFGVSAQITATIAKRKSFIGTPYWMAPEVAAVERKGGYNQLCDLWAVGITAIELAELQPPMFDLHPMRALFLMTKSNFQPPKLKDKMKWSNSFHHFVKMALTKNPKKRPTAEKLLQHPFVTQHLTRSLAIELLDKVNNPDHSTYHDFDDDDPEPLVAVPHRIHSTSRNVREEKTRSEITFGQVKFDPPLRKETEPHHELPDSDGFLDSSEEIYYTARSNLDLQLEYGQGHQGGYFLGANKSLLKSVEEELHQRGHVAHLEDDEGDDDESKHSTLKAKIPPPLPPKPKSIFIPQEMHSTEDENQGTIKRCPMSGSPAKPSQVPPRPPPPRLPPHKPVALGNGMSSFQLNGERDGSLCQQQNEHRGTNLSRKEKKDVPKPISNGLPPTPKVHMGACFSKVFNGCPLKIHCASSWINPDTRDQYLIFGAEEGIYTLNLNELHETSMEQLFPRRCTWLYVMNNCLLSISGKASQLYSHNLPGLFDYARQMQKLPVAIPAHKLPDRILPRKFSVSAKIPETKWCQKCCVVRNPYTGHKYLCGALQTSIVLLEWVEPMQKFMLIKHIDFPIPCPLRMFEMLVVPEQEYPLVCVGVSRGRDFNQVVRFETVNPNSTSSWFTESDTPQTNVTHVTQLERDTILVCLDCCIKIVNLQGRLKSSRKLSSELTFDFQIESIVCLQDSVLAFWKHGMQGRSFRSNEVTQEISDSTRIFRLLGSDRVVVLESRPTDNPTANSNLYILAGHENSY


Assays:
Myc-MKRN4 (human) = molecular target: T1, Myc-MKRN4 (human); assay: affinity purification with mass spectrometry; MKRN4 immunocomplex; GLK peptides (with Ub-Lys650) detected by mass spectrometry; cells and tags not told
[1] = molecular target: Flag-GLK (A410T) mutant (human) (UniProt Q8IVH8); assay: affinity purification with mass spectrometry; Flag-tagged GLK immunocomplex isolated from transfected Jurkat T cells; endogenous MKRN4 peptides detected by mass spectrometry
[2] = molecular target: Flag-GLK (K650R) mutant (human) (UniProt Q8IVH8); assay: as above
[3] = molecular target: Flag-GLK wild-type (MAP4K3) (human) (UniProt Q8IVH8); assay: as above

Row | binding (Myc-MKRN4 (human)) | binding [1] | binding [2] | binding [3] | Molecule
1 | binds | – | – | – | Flag-GLK (MAP4K3), in HEK293T cells (from UniProt Q8IVH8 1-894) (enzyme)
2 | – | no binding | binds | binds | Makorin ring-finger protein 4 (MKRN4), endogenous (enzyme, UniProt Q13434 1-485) MAEAAAPGTTVTTSGAGAAAAEAAETAEAVSPTPIPTVTAPSPRAGGGVGGSDGSDGSGGRGDSGAYDGSGACGGSDACDGSGDSSGDSWTKQVTCRYFKYGICKEGDNCRYSHDLSDRLCGVVCKYFQRGCCVYGDRCRCEHSKPLKQEEATATELTTKSSLAASSSLSSIVGPLVEMNTNEAESRNSNFATVVAGSEDWANAIEFVPGQPYCGRTVPSCTEAPLQGSVTKEESEEEQTAVETKKQLCPYAAVGQCRYGENCVYLHGDLCDMCGLQVLHPMDAAQRSQHIQACIEAHEKDMEFSFAVQRSKDKVCGICMEVVYEKANPNEHRFGILSNCNHTFCLKCIRKWRSAKEFESRIVKSCPQCRITSNFVIPSEYWVEEKEEKQKLIQKYKEAMSNKACKYFDEGRGSCPFGENCFYKHMYPDGRREEPQRQQVGTSSRNPGQQRNHFWEFFEEGANSNPFDDEEEAVTFELGEMLLML
